Results taken from PubChem BioAssay AID662 (National Center for Advancing Translational Sciences (NCATS), 2007).
Some of the results follow. These are further read-outs of the screen, such as a control signal, another cell line or another target. No call is given for them. Most of these compounds were active or inconclusive in the main read-out, so they are no random draw. The note in brackets gives the kind of curve behind each potency; many fits are weak.

Assay: Cell signaling CRE-BLA (Fsk stim)
Settings: CHO CRE-bla reporter (cAMP response element driving beta-lactamase), forskolin EC10, beta-lactamase ratio; measured here: 460 nm blue channel
Outline: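 Beta-lactamase reporter under a cAMP responsive element in CHO cells; compounds tested in titration series against EC10 NKH 477, 3 h at 37 °C. Read-out: CCF4 FRET ratio 460nm/530nm (excitation 405nm) giving %Activity, fitted to AC50.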

SMILES	AC50
O=S(=O)(NCc1ccncc1)c1ccc(S(=O)(=O)NCC2CCCO2)cc1 (configuration not stated)	0.126 µM [falling, partial curve, poor fit]
COC(=O)C1=C(C)N(c2cccc(Cl)c2)C(=O)C1	12.6 µM [falling, partial curve]
COc1ccc(-c2nc3scc(-c4ccccc4)n3n2)cc1	12.6 µM [falling, partial curve]
COc1cccc(CNC(=O)CCCNS(=O)(=O)c2cccs2)c1	20 µM [falling, single point]
Cc1sc2nc(SCC(=O)NCCOCCO)n(C)c(=O)c2c1C	0.00398 µM [falling, full curve]
COCCNC(=O)CN1CCN(C(c2ccccc2)c2ccccc2)CC1	0.501 µM [falling, full curve]
CCn1c2ccccc2c2cc(Nc3cc(C)nc4ncnn34)ccc21	0.631 µM [rising, full curve]
Cc1ccc(O)c(C(=O)CC(=O)c2cccc(F)c2)c1	3.16 µM [falling, partial curve]
COc1ccccc1C(=O)Nc1ccc2oc(-c3ccc(F)cc3)nc2c1	12.6 µM [rising, partial curve]
Cc1ccc(S(=O)(=O)NCC2CCC(C(=O)NCc3ccco3)CC2)cc1 (configuration not stated)	5.01 µM [falling, full curve, poor fit]
COC(=O)C1CCN(C(=O)COc2cc3sc(C)nc3c3sccc23)CC1	12.6 µM [rising, partial curve]
CCOc1ccc(OCC)c(NS(=O)(=O)c2ccc3c(c2)n(C)c(=O)c(=O)n3C)c1	3.16 µM [rising, single point]
COc1cccc(-c2cc(NCc3cnc(C)cn3)ncn2)c1	10 µM [rising, partial curve]
N#CCCn1c(=O)c(-c2cccs2)nc2cnc(Oc3ccccc3)nc21	7.94 µM [rising, partial curve]
O=c1c2cccc3c2c(nn1CN1CCOCC1)-c1ccccc1-3	12.6 µM [rising, partial curve]
N#C/C(=C(/O)CN1C(=O)c2ccccc2C1=O)c1nc2ccccc2[nH]1	15.8 µM [rising, partial curve]
Cc1ccc(-n2nnnc2SCC(=O)NCCC2=CCCCC2)c(C)c1	20 µM [falling, single point]
O=C(Cc1c(C(=O)O)[nH]c2ccc(Cl)cc12)Nc1ccc2c(c1)OCCO2	2.51 µM [falling, partial curve]
COc1ccc(Oc2ncc3nc(-c4ccc(Cl)cc4)c(=O)n(C[C@H]4CCCO4)c3n2)cc1	0.398 µM [rising, single point]
CCOC(=O)c1c(-c2ccccc2)csc1NC(=O)CSc1nnnn1C	1 µM [rising, full curve]
O=C(COC(=O)c1ccco1)NCc1cccs1	0.316 µM [falling, partial curve]
COc1ccc(-c2nc(-c3ccccc3OC)no2)cc1OC	0.631 µM [rising, full curve]
C=CCn1c(Br)nc2c1c(=O)n(C)c(=O)n2C	12.6 µM [rising, single point]

SMILES	AC50
Cc1ccc(C)c(Cn2nnc3c(=O)[nH]c(C4CCN(C(=O)c5cccs5)CC4)nc32)c1	10 µM [rising, partial curve]
Oc1c(C(c2ccccc2)N2CCc3ccccc3C2)sc2ncnn12 (configuration not stated)	25.1 µM [rising, single point]
C=CCc1c(C)nc(SC)nc1Nc1ccc(C(C)=O)cc1	10 µM [rising, partial curve]
Cc1ccn2cc(CNS(=O)(=O)c3ccc(Cl)s3)nc2c1	5.01 µM [rising, partial curve]
CN1CCN(c2ncc3nc(-c4cc(F)cc(F)c4)c(=O)n(C)c3n2)CC1	12.6 µM [rising, partial curve]
O=C(NCc1ccco1)c1cc(-c2ccc(Cl)cc2)on1	0.00794 µM [falling, full curve]
CCN(CC)S(=O)(=O)c1cc(C(=O)Nc2nncs2)c(Cl)cc1Cl	5.01 µM [falling, full curve]
COc1cccc(Cn2c(=O)c(-c3cccs3)nc3cnc(N4CCOCC4)nc32)c1	10 µM [rising, partial curve]
CCCCn1c(SCC(=O)Nc2ccc3c(c2)OCO3)nc2c1c(=O)n(C)c(=O)n2C	5.01 µM [rising, full curve]
CC(C)Sc1nc(N)c2c3c(sc2n1)CN(C)CC3	5.01 µM [falling, partial curve]
Cc1cccc(N2CCN(C(=O)CS(=O)(=O)Cc3nc(-c4ccccc4F)oc3C)CC2C)c1 (configuration not stated)	15.8 µM [falling, single point]
COc1ccc(-c2cc3nc4c(c(=O)n3[nH]2)CCC4)cc1	25.1 µM [rising, single point]
Cn1c(=O)c2sccc2n2c(CCCC(=O)NCc3ccc4c(c3)OCO4)nnc12	0.00316 µM [falling, full curve, poor fit]
COC(=O)[C@@]1(Cc2ccc(F)cc2)[C@H]2c3cc(C(=O)N4CCCC4)n(CCc4ccc(OC)c(Br)c4)c3C[C@H]2CN1C(=O)c1ccccc1	3.16 µM [rising, partial curve]
C/C(=N\O)C(=O)C(CN1CCCCC1)CN1CCCCC1	3.16 µM [falling, full curve, poor fit]
C=C[C@@]1(C)C=C2CC[C@@H]3[C@](C)(CCC[C@@]3(C)C(=O)O)[C@H]2CC1	12.6 µM [rising, single point]
CCOC(=O)c1c(NC(=O)CSc2nc3cccnc3n2C)sc(C(C)=O)c1C	3.98 µM [rising, partial curve]
N=C1C(c2nc(-c3ccc(F)cc3)cs2)=C(O)CN1CCCN1CCOCC1	5.01 µM [rising, single point]
Cc1cccc(-n2ncc3c(Nc4ccc(F)cc4)ncnc32)c1	1 µM [rising, full curve, poor fit]
Cc1nc(N(C)C)c2sc(=S)n(C)c2n1	2.51 µM [rising, full curve]
COC(=O)/C=C(\C)NC(=O)c1ccccc1Cl	15.8 µM [rising, single point]
CCCOC(=O)c1ccc(Oc2cn[nH]c2-c2ccc(OC)cc2O)cc1	12.6 µM [falling, partial curve]
O=C(CCn1c(=O)oc2ccccc21)N1CCOCC1	3.16 µM [falling, full curve, poor fit]

Of the compounds above, these have a cyano group:
SMILES	AC50
N#CCCn1c(=O)c(-c2cccs2)nc2cnc(Oc3ccccc3)nc21	7.94 µM [rising, partial curve]
N#C/C(=C(/O)CN1C(=O)c2ccccc2C1=O)c1nc2ccccc2[nH]1	15.8 µM [rising, partial curve]

Following part.

SMILES	AC50
COc1ccccc1Nc1nc2ccccc2[nH]1	5.01 µM [falling, partial curve, poor fit]
CCn1c(=NC(=O)CSC(C)=O)sc2cc(OC)ccc21	10 µM [rising, single point]
CCOC(=O)c1ccccc1NC(=O)c1ccccc1SC	25.1 µM [rising, single point]
FC(F)(F)c1ccccc1-c1nc(N2CCOCC2)c2ccccc2n1	3.16 µM [rising, full curve]
O=c1cc(CN2CCN(c3ccccc3)CC2)c2cc(O)c(-c3ccccc3)cc2o1	0.631 µM [falling, partial curve]
COC(=O)c1sc(N)c(C(=O)OC)c1CSc1nnnn1C	1 µM [falling, partial curve]
Cc1cnc(CNc2cc(-c3cccc(C#N)c3)ncn2)cn1	7.94 µM [rising, partial curve]
CCOCCCN1C(=O)CN(C2CCCCC2)C(=O)C1c1ccc(OCC)c(OC)c1 (configuration not stated)	3.98 µM [rising, full curve]
CCc1ccccc1NC(=O)CSc1nc2n[nH]c(C)c2c(=N)n1-c1ccc(OC)cc1	2 µM [rising, full curve]
COC(=O)c1ccc2c(=O)n(CCC3=CCCCC3)c(SCC(=O)N3CCCC3)nc2c1	2.51 µM [rising, single point]
CCOc1cc(-c2c(C#N)c(N)nc3c2CCCC3)ccc1O	5.01 µM [rising, full curve]
CCOc1nc(C)ccc1-c1noc(-c2ccccc2OC)n1	5.01 µM [falling, single point]
CCNc1ncc2nc(-c3cn(C)c4ccccc34)c(=O)n(CCC#N)c2n1	12.6 µM [rising, partial curve]
COc1ccc(NC(=O)CCNC(=O)Cn2ccc3ccccc3c2=O)c(OC)c1	25.1 µM [rising, single point]
CCOC(=O)c1nn(-c2ccc(OC)cc2)c(=O)c2c(NC(=O)c3ccco3)scc12	15.8 µM [rising, single point]
COCCNC(=O)C(C#N)c1nc2ccccc2nc1N1CCCCCC1 (configuration not stated)	15.8 µM [rising, partial curve]
COc1cc(NS(C)(=O)=O)c(OC)cc1NC(=O)c1cccc(F)c1	12.6 µM [rising, single point]
CN(C)c1ncc2nc(-c3cc(F)cc(F)c3)c(=O)n(Cc3cccs3)c2n1	5.01 µM [rising, partial curve]
NC(=O)c1cnn2c(C(F)(F)F)cc(-c3ccc(F)cc3)nc12	6.31 µM [rising, partial curve]
COc1ccc(C2C(C#N)=C(N)OC3=C2C(=O)CC(C)(C)C3)c(OC)c1OC (configuration not stated)	0.0631 µM [rising, full curve]
CCSc1nc2cc(OC)c(OC)cc2c(=O)n1CC	10 µM [rising, partial curve]
